From paper PMC2660430
No constants are given. Whether binding was seen depends on the method and setting.

By UniProt entry, the sequences of proteins in these tests, tags left out.
UniProt P50250: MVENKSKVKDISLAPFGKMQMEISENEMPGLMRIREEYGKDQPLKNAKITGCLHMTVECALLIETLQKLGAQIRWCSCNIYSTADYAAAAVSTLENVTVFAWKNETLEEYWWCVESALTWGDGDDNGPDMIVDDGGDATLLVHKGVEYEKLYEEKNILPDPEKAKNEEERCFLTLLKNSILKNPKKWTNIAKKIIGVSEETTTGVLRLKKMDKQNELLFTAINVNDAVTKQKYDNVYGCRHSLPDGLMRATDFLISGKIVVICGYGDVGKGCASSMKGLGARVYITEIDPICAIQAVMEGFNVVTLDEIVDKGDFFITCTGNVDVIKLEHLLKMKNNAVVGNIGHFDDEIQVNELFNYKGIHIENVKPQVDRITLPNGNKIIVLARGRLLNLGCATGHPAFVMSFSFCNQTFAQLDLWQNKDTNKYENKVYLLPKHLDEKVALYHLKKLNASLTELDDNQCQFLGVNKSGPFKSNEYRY

Molecular target: PfSAHH (recombinant S-adenosyl-L-homocysteine hydrolase) (P. falciparum strain 3D7) (UniProt P50250)
Experiment: SPR; BIAcore X; SAHH amine-coupled to CM5 chip, oxidized with 0.5 mM DTNB; analyte 10 µM in HBS buffer (10 mM HEPES, 150 mM NaCl, 3.4 mM EDTA, 0.005% Nonidet P-40, pH 7.4), 25°C, 10 µl/min; elution with 2 mM DTT; FC2-FC1; both purified

B1: PfTrx1 (wild type thioredoxin) (protein, UniProt Q7KQL8 1-104)
chain: MVKIVTSQAEFDSIISQNELVIVDFFAEWCGPCKRIAPFYEECSKTYTKMVFIKVDVDEVSEVTEKENITSMPTFKVYKNGSSVDTLLGANDSALKQLIEKYAA
binding: no binding (tested: 10 µM)
